From the supplement of paper PMC10849652
Some of the results follow.

Chains of the proteins cited; added tags and fusions are not shown. Lines headed by an entry give the natural chain unless they say otherwise; changes in a name come on top.
UniProt Q9NWL6: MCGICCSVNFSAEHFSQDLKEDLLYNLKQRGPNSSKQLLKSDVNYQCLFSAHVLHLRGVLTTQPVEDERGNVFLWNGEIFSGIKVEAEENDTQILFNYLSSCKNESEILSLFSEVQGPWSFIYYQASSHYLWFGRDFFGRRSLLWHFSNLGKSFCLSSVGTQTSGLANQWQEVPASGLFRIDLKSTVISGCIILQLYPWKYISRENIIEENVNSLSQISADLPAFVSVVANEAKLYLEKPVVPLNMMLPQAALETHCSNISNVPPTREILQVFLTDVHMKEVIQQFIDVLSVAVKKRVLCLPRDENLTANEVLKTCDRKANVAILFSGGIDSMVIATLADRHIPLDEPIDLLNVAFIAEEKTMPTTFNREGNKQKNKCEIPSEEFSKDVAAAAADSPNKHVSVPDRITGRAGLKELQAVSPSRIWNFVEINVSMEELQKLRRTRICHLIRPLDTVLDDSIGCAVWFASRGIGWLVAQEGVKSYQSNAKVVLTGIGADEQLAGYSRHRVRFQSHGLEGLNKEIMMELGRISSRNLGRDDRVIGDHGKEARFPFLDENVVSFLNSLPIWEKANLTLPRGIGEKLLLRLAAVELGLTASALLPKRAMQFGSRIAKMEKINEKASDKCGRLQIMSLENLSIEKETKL
UniProt Q53RT3: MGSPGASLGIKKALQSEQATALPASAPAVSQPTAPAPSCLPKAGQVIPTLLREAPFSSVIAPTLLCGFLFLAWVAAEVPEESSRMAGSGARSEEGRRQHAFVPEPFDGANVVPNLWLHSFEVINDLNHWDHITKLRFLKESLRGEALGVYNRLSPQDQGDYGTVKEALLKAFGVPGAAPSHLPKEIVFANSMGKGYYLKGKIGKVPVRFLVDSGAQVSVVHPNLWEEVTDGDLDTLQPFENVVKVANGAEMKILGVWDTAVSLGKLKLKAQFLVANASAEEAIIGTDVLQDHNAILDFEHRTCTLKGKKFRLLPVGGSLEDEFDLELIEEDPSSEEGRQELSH
UniProt Q9NQS1: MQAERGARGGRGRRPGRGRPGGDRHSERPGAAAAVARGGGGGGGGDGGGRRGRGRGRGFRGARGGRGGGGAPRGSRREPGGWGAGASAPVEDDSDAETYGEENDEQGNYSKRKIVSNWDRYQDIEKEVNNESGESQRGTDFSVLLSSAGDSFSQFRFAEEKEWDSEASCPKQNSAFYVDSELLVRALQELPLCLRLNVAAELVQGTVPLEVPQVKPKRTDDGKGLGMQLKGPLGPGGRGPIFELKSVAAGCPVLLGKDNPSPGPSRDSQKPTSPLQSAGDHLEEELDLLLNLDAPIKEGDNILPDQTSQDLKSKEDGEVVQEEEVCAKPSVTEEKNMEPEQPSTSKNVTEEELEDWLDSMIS
UniProt P18847: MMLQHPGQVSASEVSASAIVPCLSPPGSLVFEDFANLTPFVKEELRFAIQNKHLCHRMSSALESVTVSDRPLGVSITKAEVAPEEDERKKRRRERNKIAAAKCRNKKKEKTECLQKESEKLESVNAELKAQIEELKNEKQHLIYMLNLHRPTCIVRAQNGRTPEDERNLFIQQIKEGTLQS
UniProt Q9H7T9: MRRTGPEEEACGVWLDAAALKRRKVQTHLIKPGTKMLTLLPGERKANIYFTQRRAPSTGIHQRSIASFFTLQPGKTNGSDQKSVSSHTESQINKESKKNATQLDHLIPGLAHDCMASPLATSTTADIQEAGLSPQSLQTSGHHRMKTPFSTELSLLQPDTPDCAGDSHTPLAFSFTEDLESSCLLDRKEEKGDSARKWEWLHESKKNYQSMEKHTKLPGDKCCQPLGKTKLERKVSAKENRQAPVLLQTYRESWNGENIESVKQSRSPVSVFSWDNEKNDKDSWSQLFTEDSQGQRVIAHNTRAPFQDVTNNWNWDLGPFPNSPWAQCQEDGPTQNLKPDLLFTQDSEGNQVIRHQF
UniProt Q8NCR0: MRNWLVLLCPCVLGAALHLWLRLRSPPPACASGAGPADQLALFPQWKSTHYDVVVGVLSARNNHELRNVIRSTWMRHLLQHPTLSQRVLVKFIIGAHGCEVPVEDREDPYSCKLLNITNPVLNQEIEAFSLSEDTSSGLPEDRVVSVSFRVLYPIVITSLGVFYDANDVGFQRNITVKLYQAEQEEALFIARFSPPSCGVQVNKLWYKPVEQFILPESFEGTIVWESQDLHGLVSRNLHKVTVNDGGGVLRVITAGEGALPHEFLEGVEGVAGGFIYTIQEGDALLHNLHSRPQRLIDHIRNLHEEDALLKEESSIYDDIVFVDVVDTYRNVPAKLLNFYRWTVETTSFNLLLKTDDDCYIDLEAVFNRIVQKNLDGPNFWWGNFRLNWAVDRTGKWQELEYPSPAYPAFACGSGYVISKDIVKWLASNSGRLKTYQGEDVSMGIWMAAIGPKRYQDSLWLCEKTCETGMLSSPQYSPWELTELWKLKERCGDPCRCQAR
UniProt P0C7T5: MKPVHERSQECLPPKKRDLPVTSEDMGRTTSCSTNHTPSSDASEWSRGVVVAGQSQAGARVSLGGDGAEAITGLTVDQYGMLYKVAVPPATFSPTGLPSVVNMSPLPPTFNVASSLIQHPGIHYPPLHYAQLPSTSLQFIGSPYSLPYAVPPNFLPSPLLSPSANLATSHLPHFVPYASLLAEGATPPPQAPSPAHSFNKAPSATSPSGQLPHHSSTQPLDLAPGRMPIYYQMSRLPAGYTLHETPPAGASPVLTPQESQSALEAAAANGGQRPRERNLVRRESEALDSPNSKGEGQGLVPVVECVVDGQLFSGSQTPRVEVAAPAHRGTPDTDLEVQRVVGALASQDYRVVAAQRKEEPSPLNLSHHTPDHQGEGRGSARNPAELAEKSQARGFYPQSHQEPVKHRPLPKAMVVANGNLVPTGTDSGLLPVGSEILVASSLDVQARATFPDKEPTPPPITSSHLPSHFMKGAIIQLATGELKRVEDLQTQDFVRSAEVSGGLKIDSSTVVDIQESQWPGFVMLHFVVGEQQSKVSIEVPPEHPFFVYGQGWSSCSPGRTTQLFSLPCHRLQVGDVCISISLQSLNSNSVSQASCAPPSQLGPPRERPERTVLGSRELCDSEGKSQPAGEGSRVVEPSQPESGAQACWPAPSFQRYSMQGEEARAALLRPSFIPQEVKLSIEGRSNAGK
UniProt Q6P4H8: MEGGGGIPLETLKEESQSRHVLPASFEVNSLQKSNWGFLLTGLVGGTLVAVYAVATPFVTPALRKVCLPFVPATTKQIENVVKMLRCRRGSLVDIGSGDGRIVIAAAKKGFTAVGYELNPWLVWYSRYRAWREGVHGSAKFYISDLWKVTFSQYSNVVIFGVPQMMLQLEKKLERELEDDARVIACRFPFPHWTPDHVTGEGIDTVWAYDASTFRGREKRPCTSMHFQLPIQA
UniProt Q6UW56: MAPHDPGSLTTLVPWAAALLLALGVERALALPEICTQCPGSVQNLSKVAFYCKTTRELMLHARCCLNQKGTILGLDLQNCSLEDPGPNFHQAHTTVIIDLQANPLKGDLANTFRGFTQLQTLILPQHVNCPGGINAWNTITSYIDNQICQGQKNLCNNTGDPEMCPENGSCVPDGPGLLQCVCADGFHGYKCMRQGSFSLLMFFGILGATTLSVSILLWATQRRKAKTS
UniProt Q9H0Y0: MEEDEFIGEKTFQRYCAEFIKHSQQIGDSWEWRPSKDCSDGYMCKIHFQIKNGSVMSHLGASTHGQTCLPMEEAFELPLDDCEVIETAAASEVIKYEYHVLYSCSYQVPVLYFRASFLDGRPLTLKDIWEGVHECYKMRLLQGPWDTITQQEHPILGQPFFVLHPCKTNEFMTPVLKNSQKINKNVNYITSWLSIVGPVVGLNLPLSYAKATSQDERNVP
UniProt Q6ZNE5, whole entry, looked up: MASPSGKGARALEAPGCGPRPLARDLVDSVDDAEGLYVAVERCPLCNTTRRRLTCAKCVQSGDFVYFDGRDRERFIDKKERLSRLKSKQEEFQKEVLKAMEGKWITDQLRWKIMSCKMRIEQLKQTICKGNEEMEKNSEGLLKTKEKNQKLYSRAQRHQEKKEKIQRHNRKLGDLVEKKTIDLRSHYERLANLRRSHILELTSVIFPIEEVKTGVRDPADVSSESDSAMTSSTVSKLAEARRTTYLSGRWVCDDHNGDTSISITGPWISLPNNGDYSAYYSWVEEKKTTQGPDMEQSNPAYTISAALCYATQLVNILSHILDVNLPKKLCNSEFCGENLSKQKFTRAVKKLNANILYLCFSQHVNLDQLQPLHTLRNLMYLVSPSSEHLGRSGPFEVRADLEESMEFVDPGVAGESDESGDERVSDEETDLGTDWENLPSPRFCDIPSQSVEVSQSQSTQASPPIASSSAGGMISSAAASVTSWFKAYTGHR
UniProt Q99941: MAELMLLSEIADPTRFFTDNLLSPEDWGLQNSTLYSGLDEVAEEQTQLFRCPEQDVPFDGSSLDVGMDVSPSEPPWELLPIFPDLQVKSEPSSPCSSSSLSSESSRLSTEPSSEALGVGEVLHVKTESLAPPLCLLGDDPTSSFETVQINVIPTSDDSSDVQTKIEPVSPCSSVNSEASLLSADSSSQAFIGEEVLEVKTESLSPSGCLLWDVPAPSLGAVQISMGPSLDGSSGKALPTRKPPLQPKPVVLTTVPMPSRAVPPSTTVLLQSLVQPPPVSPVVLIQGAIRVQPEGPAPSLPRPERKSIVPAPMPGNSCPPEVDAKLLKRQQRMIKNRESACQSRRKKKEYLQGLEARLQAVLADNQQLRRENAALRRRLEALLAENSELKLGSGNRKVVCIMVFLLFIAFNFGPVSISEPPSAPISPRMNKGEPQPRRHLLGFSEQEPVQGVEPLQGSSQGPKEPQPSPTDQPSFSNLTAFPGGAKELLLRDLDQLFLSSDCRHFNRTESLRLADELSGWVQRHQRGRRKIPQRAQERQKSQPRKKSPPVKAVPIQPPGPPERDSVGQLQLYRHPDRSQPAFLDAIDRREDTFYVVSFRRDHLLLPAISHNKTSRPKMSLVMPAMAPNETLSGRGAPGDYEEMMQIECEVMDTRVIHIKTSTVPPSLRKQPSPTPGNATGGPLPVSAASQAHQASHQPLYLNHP
UniProt Q9ULI0: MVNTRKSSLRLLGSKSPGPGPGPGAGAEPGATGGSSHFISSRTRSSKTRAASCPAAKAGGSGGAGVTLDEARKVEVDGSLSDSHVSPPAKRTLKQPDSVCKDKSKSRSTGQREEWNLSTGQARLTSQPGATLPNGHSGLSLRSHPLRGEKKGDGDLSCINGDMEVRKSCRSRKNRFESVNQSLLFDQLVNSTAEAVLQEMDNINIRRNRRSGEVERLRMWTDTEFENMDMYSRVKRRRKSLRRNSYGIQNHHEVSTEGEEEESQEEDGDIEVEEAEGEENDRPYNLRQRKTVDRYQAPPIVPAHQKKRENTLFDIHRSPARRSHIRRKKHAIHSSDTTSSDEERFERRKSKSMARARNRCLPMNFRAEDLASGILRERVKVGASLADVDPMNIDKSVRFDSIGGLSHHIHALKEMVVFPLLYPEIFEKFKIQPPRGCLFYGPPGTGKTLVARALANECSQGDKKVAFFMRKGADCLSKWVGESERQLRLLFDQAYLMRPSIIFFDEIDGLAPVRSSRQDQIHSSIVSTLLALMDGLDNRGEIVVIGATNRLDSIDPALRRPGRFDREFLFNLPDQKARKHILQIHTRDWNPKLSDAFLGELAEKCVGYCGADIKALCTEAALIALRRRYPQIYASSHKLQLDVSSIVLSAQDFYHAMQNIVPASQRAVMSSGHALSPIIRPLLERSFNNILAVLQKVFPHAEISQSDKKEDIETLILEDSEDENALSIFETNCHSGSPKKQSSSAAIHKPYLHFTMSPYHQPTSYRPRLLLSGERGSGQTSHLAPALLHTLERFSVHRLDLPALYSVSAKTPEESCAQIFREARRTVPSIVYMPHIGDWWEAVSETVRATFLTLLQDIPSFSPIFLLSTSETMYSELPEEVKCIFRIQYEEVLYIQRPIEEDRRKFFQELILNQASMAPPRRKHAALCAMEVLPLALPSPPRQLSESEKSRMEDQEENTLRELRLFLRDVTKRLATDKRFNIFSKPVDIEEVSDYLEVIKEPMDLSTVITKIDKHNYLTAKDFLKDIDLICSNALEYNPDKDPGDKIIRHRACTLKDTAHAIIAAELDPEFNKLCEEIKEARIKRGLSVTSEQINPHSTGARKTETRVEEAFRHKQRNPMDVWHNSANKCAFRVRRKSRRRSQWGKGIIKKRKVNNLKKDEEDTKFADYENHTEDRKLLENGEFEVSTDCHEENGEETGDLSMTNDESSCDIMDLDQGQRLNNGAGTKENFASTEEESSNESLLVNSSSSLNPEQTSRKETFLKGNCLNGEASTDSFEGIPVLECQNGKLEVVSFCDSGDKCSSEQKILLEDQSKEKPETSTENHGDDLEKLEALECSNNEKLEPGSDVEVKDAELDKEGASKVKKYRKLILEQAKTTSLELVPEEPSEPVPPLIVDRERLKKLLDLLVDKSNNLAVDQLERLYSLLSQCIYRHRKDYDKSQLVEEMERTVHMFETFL

Columns and labels:
Experiment in all cases: log2 fold change, soluble protein after heating vs DMSO (PISA); higher = thermal stabilisation; K562 lysate, 10 uM; active = over 0.2 and 3.5 SD of the protein, either way, in both replicates (recomputed)
pictilisib = compound: CS(=O)(=O)N1CCN(Cc2cc3nc(-c4cccc5[nH]ncc45)nc(N4CCOCC4)c3s2)CC1 [pictilisib]
Method in brief: (§1)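 Thermal stability, expressed as log-two fold change relative to solvent controls, is given from duplicates. Crude K562 extract in PBS pH 7.4 with 1 mM MgCl2, at 1 mg/mL protein, was treated with 10 μM compound for 30 min and heated in aliquots for 3 min across 48°C-58°C. After pooling, adjustment to 0.5% NP-40 at 4°C and centrifugation at 21,000xg for 90 min, supernatant protein was measured by TMTpro 16plex LC-MS/MS with channel sums equalised.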

[1] = compound: C[C@H](C1=CC=C(C=C1)C(=O)NC2=C3C=CNC3=NC=C2)N
Method in brief: as §1

gandotinib = compound: Cc1cc(Nc2cc(CN3CCOCC3)c3nc(C)c(Cc4ccc(Cl)cc4F)n3n2)n[nH]1 [gandotinib]
Method in brief: as §1

tozasertib = compound: Cc1cc(Nc2cc(N3CCN(C)CC3)nc(Sc3ccc(NC(=O)C4CC4)cc3)n2)n[nH]1 [tozasertib]
Method in brief: as §1

bafetinib = compound: Cc1ccc(NC(=O)c2ccc(CN3CC[C@H](N(C)C)C3)c(C(F)(F)F)c2)cc1Nc1nccc(-c2cncnc2)n1 [bafetinib]
Method in brief: as §1

[2] = compound: Cc1cccc(CC(=O)N2CCc3c2ccc(-c2cn(C)c4ncnc(N)c24)c3F)n1
Method in brief: as §1

nilotinib = compound: Cc1cn(-c2cc(NC(=O)c3ccc(C)c(Nc4nccc(-c5cccnc5)n4)c3)cc(C(F)(F)F)c2)cn1 [nilotinib]
Method in brief: as §1

[3] = compound: Cc1nc(Nc2n[nH]c3c2CN(C(=O)N[C@H](CN(C)C)c2ccccc2)C3(C)C)c2sccc2n1
Method in brief: as §1

[4] = compound: Cc1ncc(-c2ccnc(Nc3ccc(S(C)(=O)=O)cc3)n2)n1C(C)C
Method in brief: as §1

tipifarnib = compound: Cn1cncc1[C@@](N)(c1ccc(Cl)cc1)c1ccc2c(c1)c(-c1cccc(Cl)c1)cc(=O)n2C [tipifarnib]
Method in brief: as §1

[5] = compound: NC1(c2ccc(-c3nc4ccn5c(=O)[nH]nc5c4cc3-c3ccccc3)cc2)CCC1
Method in brief: as §1

crizotinib = compound: C[C@@H](Oc1cc(-c2cnn(C3CCNCC3)c2)cnc1N)c1c(Cl)ccc(F)c1Cl [crizotinib]
Method in brief: as §1

duvelisib = compound: C[C@H](Nc1ncnc2nc[nH]c12)c1cc2cccc(Cl)c2c(=O)n1-c1ccccc1 [duvelisib]
Method in brief: as §1

doramapimod = compound: Cc1ccc(-n2nc(C(C)(C)C)cc2NC(=O)Nc2ccc(OCCN3CCOCC3)c3ccccc23)cc1 [doramapimod]
Method in brief: as §1

dasatinib = compound: Cc1nc(Nc2ncc(C(=O)Nc3c(C)cccc3Cl)s2)cc(N2CCN(CCO)CC2)n1 [dasatinib]
Method in brief: as §1

[6] = compound: Cn1cc(-c2ccc3c(c2)CCN3C(=O)Cc2cccc(C(F)(F)F)c2)c2c(N)ncnc21
Method in brief: as §1

quisinostat = compound: Cn1cc(CNCC2CCN(c3ncc(C(=O)NO)cn3)CC2)c2ccccc21 [quisinostat]
Method in brief: as §1

[7] = compound: NC(=O)Nc1cc(-c2cccc(F)c2)sc1C(=O)N[C@H]1CCCNC1
Method in brief: as §1

lapatinib = compound: CS(=O)(=O)CCNCc1ccc(-c2ccc3ncnc(Nc4ccc(OCc5cccc(F)c5)c(Cl)c4)c3c2)o1 [lapatinib]
Method in brief: as §1

[8] = compound: NC(=O)c1cnc(N[C@@H]2CCCC[C@@H]2N)nc1Nc1cccc(-n2nccn2)c1
Method in brief: as §1

Measured: log2 fold change

ASNSD1 (UniProt Q9NWL6)
inactive: pictilisib 0.036 | [1] -0.036 | gandotinib 0.01 | tozasertib -0.007 | bafetinib 0 | [2] 0.055 | nilotinib -0.017 | [3] 0.031 | [4] 0.071 | tipifarnib -0.031 | [5] 0.023

ASPRV1 (UniProt Q53RT3)
inactive: [5] 0.046

AVEN (UniProt Q9NQS1)
inactive: pictilisib 0.022 | crizotinib -0.08 | [1] -0.462 | duvelisib 0.014 | gandotinib 0.262 | tozasertib 0.084 | doramapimod 0.068 | bafetinib -0.097 | [2] 0.338 | nilotinib -0.014 | [3] 0.068 | dasatinib 0.01 | [4] 0.025 | [6] -0.08 | quisinostat -0.042 | tipifarnib -0.188 | [7] 0.038 | [5] 0.154

ATF3 (UniProt P18847)
inactive: crizotinib -0.032 | [1] -0.231 | duvelisib 0.014 | gandotinib 0.149 | tozasertib -0.007 | doramapimod 0.122 | [2] 0.213 | nilotinib 0.14 | [3] -0.181 | dasatinib -0.172 | [4] -0.114 | [6] -0.016 | quisinostat -0.12 | tipifarnib -0.123 | [7] 0.014 | [5] 0.035

ATP2C1 isoform 3 (UniProt P98194)
inactive: [1] -0.017 | gandotinib -0.032 | [2] 0.189 | [5] -0.049

AUNIP isoform 2 (UniProt Q9H7T9)
inactive: pictilisib 0.116 | crizotinib 0.004 | [1] -0.115 | duvelisib 0.004 | gandotinib 0.166 | tozasertib -0.218 | doramapimod 0.037 | bafetinib 0.165 | [2] -0.095 | dasatinib -0.007 | [6] 0.024 | quisinostat -0.087 | [7] -0.006 | [5] 0.116

B3GALNT2 (UniProt Q8NCR0)
inactive: lapatinib 0.148 | crizotinib 0.174 | duvelisib 0.21 | doramapimod 0.108 | nilotinib 0.026 | [3] -0.19 | dasatinib -0.086 | [4] -0.11 | [6] -0.019 | quisinostat -0.055 | tipifarnib -0.182 | [7] -0.149 | [8] 0.116

ATXN1L (UniProt P0C7T5)
inactive: pictilisib 0.012 | crizotinib 0.031 | [1] 0.023 | gandotinib -0.058 | tozasertib 0.182 | doramapimod -0.01 | bafetinib 0.199 | [2] -0.034 | nilotinib -0.047 | [3] 0.031 | [4] -0.061 | quisinostat -0.014 | tipifarnib 0.106 | [7] 0.031

ATG4D (UniProt Q86TL0)
active: [6] -0.57
inactive: pictilisib -0.054 | crizotinib -0.031 | duvelisib 0.109 | tozasertib 0.099 | doramapimod -0.072 | bafetinib -0.056 | dasatinib -0.037 | quisinostat -0.085 | [7] 0.084

ATPSCKMT (UniProt Q6P4H8)
inactive: pictilisib -0.113 | crizotinib -0.039 | duvelisib -0.036 | tozasertib -0.219 | doramapimod 0.022 | bafetinib -0.034 | dasatinib 0.052 | [6] -0.021 | quisinostat 0.018 | [7] 0.001

2 entries drawn at random from the list so far, as already listed:
AUNIP isoform 2 (UniProt Q9H7T9)
inactive: pictilisib 0.116 | crizotinib 0.004 | [1] -0.115 | duvelisib 0.004 | gandotinib 0.166 | tozasertib -0.218 | doramapimod 0.037 | bafetinib 0.165 | [2] -0.095 | dasatinib -0.007 | [6] 0.024 | quisinostat -0.087 | [7] -0.006 | [5] 0.116

ASNSD1 (UniProt Q9NWL6)
inactive: pictilisib 0.036 | [1] -0.036 | gandotinib 0.01 | tozasertib -0.007 | bafetinib 0 | [2] 0.055 | nilotinib -0.017 | [3] 0.031 | [4] 0.071 | tipifarnib -0.031 | [5] 0.023

Next results

ATRAID isoform 3 (UniProt Q6UW56)
inactive: lapatinib 0.009 | crizotinib 0.035 | duvelisib 0.007 | tozasertib 0.013 | doramapimod 0.032 | nilotinib -0.045 | [3] -0.001 | dasatinib 0.034 | [4] 0.046 | [6] -0.038 | quisinostat -0.162 | tipifarnib 0.042 | [7] 0.026 | [8] -0.013 | [5] -0.027

ATG10 (UniProt Q9H0Y0)
inactive: pictilisib -0.051 | crizotinib -0.008 | [1] 0.021 | duvelisib 0.065 | gandotinib -0.023 | tozasertib -0.087 | doramapimod -0.014 | bafetinib 0.012 | [2] 0.063 | nilotinib -0.064 | [3] 0.026 | dasatinib 0.043 | [4] -0.16 | [6] -0.068 | quisinostat 0.015 | tipifarnib 0.125 | [7] -0.01 | [5] 0.016

ATG14 (UniProt Q6ZNE5)
inactive: pictilisib 0.02 | duvelisib 0.085 | tozasertib 0.101 | bafetinib 0.022 | nilotinib 0.087 | [3] -0.072 | dasatinib 0.055 | [4] -0.134 | [6] 0.037 | tipifarnib -0.236 | [5] -0.19

ATP5F1A (UniProt K7ENJ4)
inactive: lapatinib 0.024 | [1] -0.181 | gandotinib -0.082 | [2] 0.25 | nilotinib -0.288 | [3] 0.039 | [4] 0.093 | tipifarnib 0.081 | [8] -0.06 | [5] 0.162

ATF6 (UniProt P18850)
inactive: tozasertib 0.135 | [5] -0.166

ASTE1 (UniProt Q2TB18)
inactive: lapatinib 0.028 | crizotinib -0.009 | doramapimod 0.037 | quisinostat -0.069 | [7] 0.332 | [8] -0.02

ATF6B (UniProt Q99941)
inactive: crizotinib -0.238 | doramapimod 0 | quisinostat -0.091 | [7] 0.135

ATAD2B (UniProt Q9ULI0)
inactive: pictilisib -0.329 | bafetinib 0.047
